Measurements taken from PubChem BioAssay AID1347423 (Functional Genomics Laboratory (NCATS/FGL), 2020).
In all, about 52,000 sequences went through this assay and about 210 (0.4%) were called active.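 The calls were made as follows: active = gene whose silencing raises cell survival under the drug, median off-target-corrected z-score across its silencing RNAs 2 or more; inactive = the rest.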 The list shows a part of the results.

test: Resistance to Poly (ADP-Ribose) Polymerase inhibitor: Gene Identification via Genome-wide siRNA Screen; settings: mouse BRCA2 R2336H ES cells, olaparib, CellTiter-Glo viability; stronger effect = higher value
Procedure, shortened: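 Genome-wide siRNA screen (3 siRNAs/gene, 20 nM) in mouse ES cells carrying hypomorphic BRCA2 R2336H; olaparib 500 nM added 48 h post-transfection, CellTiter-Glo viability 72 h later. Normalized to plate-median negative control; MAD z-scores, gene median, seed-adjusted.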

Sequence | z-score
GGUGGUAACCAAUCAUUACTT against Cd200r1 | inactive: 2.21
GGAAAUCAAGGAGCAGGAATT against S100b | inactive: 0.653
GGGAGCCACAUACAAAUACTT against AI326906 | inactive: 1.11
GGCUUGUUCCUGUUCCUCUTT against Ndufc2 | inactive: 0.204
GGCAUCAAGCAAUUCACUCTT against Zfp455 | inactive: 0.222
GAACUGUACCAAACCCUACTT against Klk24 | inactive: -0.536
CCCACCCAGGCAAUAAAAUTT against Fstl3 | inactive: -0.417
GGACAAAAGGCUGAGCAUCTT against Flt1 | inactive: -0.772
GGGAGAAUCGAUCCUUCACTT against 2310004L02Rik | inactive: 1.03
GCGAUUUGGCUUGCCAAGATT against Zfp622 | inactive: -1.62
GGCUACAUCCCUGAACACUTT against Ndufb5 | inactive: 0.655
CGCAAUCAUGAGCUUCGUCTT against Peci | inactive: 0.8
GGUCAGUUGAGAUGUUUUUTT against Pag | inactive: 0.105
GGAUGUUACAAAAGUCUGGTT against Wbscr16 | inactive: -0.504
GGGAAUUUUUGUGGGUGAATT against Bbs2 | inactive: 0.673
GGAUUUGCCUUAAAAAAUCTT against 6330411N01Rik | inactive: 0.296
GUGCCUAGUUUUCUGCAUGTT against V1rj3 | inactive: 1.61
GGACCAGUUAUCCUCACUGTT against 1810011O16Rik | inactive: 0.306
GGAAGUAAAAGAGGCUUUUTT against Olfr432 | inactive: -1.2
GGGUGAGACUUUUAUUAUUTT against AU040950 | inactive: 2.08
GGACCUGAGAGUUGUUUUGTT against Faim | inactive: 0.129
GGUAAACUCAAGUUUUCAGTT against Pib5pa | inactive: 1.26
CCGAAUCUGUCGUCAAGGUTT against Trem3 | inactive: -0.346
CCUGGUAUCCAAGAGGAAGTT against Myt1 | inactive: 0.477
GGCAAAGUGGUAGAAAAAATT against Lincr | inactive: -1.02
CGGCCAUUUACCAUACGUUTT against Slc15a1 | inactive: 1.82

Sequence | z-score
GGAGAUAAGAGAUCACAUCTT against BC019806 | inactive: 0.00125
GGUCCGUCUGGUAAAAAGATT against Catna2 | inactive: 0.794
GGGUUUGGGAACAUCGAUGTT against Angptl2 | inactive: -0.724
CGGAGUUGGGAUUUACCAGTT against Pdir | inactive: 0.695
GGAUUAAAGGGUAACUUAGTT against 6530421E24Rik | inactive: -2.16
CCCGGUCAUAUAUGCCAUCTT against Gpr135 | inactive: 2.9
GCCGUUGAGUAUAAAACUCTT against Stfa1 | inactive: 0.335
CCACUCAGGAAAUGUUAAGTT against Mrpl53 | inactive: 0.297
GCCUGUGGAGCCAAUCUACTT against Ephx2 | inactive: 0.219
GGAUUCACCUGUUAUCUUUTT against Tapbpl | inactive: -0.499
GCUUCAAACCUCUUGCUCATT against Epb4.9 | inactive: 0.527
GCCUAAGGAUCCUGGGUUATT against BC061259 | inactive: -1.76
GGCUCUGUUGUCCUUGACCTT against Epb4.1l4a | inactive: 0.786
GGUGAUCCCGAAUGAUGAATT against MGC107514 | inactive: 1.13
GGCCAUCUUUGACAGUGCUTT against Dnahc1 | inactive: -0.103
GGUACCAUCACGUUGUGUATT against M6pr | inactive: -1.35
CCACAAAUAUAUGGGUUACTT against Tbc1d5 | inactive: -0.687
GGGAGAACGGGUUCUCUUUTT against Sox12 | inactive: 0.0917
GGAAAUGUUGCAUUUUUGATT against Ltf | inactive: 1.34
CCUUUCAGGCCAAUUGGCATT against Ube2l6 | inactive: 0.111
GGACUCAAAAGUCCCUGUATT against Gpr97 | inactive: -1.4
CCUAUGAAGGACACAGACUTT against Trim9 | inactive: -0.241
GGCAGCUGAGCAUAAUCCCTT against Rbm21 | inactive: -0.111
GACUAGGACACUGACCCUCTT against Ifna12 | inactive: 1.65
GGCAAAUAUAUCCUCUUUGTT against Gpx3 | inactive: -0.911
GAUGCUAUCUGGCUUUCUUTT against Olfr981 | inactive: -0.356

A section from further up:
Sequence | z-score
GGCCAUCUUUGACAGUGCUTT against Dnahc1 | inactive: -0.103
GGUACCAUCACGUUGUGUATT against M6pr | inactive: -1.35
CCACAAAUAUAUGGGUUACTT against Tbc1d5 | inactive: -0.687
GGGAGAACGGGUUCUCUUUTT against Sox12 | inactive: 0.0917

(listing goes on)

Sequence | z-score
CCAACACCAUUCAAAUAGATT against 6430546I09 | inactive: 3.41
GCACUUCGAAUGUACUGUCTT against Gnrh2 | inactive: 1.05
GGAACAUGAAGACUAUACATT against BB049667 | inactive: 0.538
GCACAGAAAUAUUAAAGUCTT against Foxp4 | inactive: -0.504
AAAGUAAGAGACUACGCUCTT against H2-Q2 | inactive: 0.455
CGGGCUGCUACGAAAAAGUTT against 9430079M16Rik | inactive: -2.22
CCAUGGACUUUCUCGAAGATT against Ceacam11 | inactive: 0.519
GGGCGAGUUCAACUGAGACTT against Hapln3 | inactive: -0.222
GGAAACAAGGAUAUUCUUUTT against Fanca | inactive: 1.22
GCCAUGUGUCUCACAAGUCTT against Sprr1b | inactive: -0.47
GGAAUCGGUGGCCAUCAAUTT against Olfr771 | inactive: 0.782
GGGAUUUGCCAAAGAAUAGTT against AI597479 | inactive: -0.308
GGAAUGGUUAUGAAUUUGATT against Pts | inactive: -0.253
GGGCAUUAAGACAAAGAGUTT against D6Wsu176e | inactive: 0.725
GGUGAGAAGAUGUCUCUUATT against Olfr103 | inactive: 0.149
GCAAGUCAUGCGAAUACAATT against Chrdl1 | inactive: -2.07
GGAGCGAUUUGAUGAUAUGTT against 1110034C04Rik | inactive: -0.0765
GGAUGAAAUGGAAGAAAAUTT against Barx1 | inactive: -0.676
GGGACCUGACCUUACUCAUTT against 9330132O05Rik | inactive: -2.82
GGAGAUCCACUUCCUCAAGTT against B3gnt7 | inactive: 0.389
GCCAUUGGUUGGGAUAAACTT against Fancl | inactive: 1.19
CCAUUACACAAAGUUUUGCTT against Stard6 | inactive: 0.874
GCCUAUCUGUGACUGACCUTT against LOC433501 | inactive: 1.1
CCACCUUCGGUUCAACUAUTT against Gal3st2 | inactive: -0.128
GGAUGUGGAAUCAUGCUAUTT against C430013M08Rik | inactive: -2.06
GGUCCCAAGAAUUUUUAAATT against Kntc2 | inactive: 0.519

As entered above:
z-score with GGAAUGGUUAUGAAUUUGATT against Pts reads inactive: -0.253
z-score with GCACAGAAAUAUUAAAGUCTT against Foxp4 reads inactive: -0.504

The listing continues.

Sequence | z-score
GGCGGUUUAUGGUAUAAACTT against 2700049P18Rik | inactive: 1.39
GGCGCAUUAUGGAGACUCATT against Cebpe | inactive: -0.199
GGACUUUGCGUAUAGCCCUTT against Tulp3 | inactive: 0.196
CGUAAAAGGACUCUACAAATT against Papss2 | inactive: 0.567
CCGAAAAUGUGGUAAAGUATT against 2610207I05Rik | inactive: -2.13
GGUUUUCCCUCCAGAUGAGTT against Mtch1 | inactive: 1.2
GGCACAAGUCCAUGUUGUUTT against Grcc2f | inactive: -1.91
GGGCUUGUUUGACUUUCAUTT against Btd | inactive: -0.89
CGAACUCGAAUGCUAACGCTT against D7Ertd156e | inactive: 0.897
GGCUGUGGAAAACAGUAGUTT against Psma3 | inactive: 1.24
CCUGGUGCUAUGGACUAAATT against Tectb | inactive: 0.706
GGCAAAAAGAUAGGAGCUGTT against Txn1 | inactive: -1.73
GGAAUUAUAGGACUUGUUCTT against Tde2 | inactive: 1.01
GGAGGAAGAUCUUUAAUGUTT against LOC215714 | inactive: 1.09
GGCUCUGGCUGAUUUUGCATT against 2510048K03Rik | inactive: 1.25
GCUCUAAAGAGUCCCAAGATT against 2610020O08Rik | inactive: -1.34
GGAGUCUUGGAAAAAAGGCTT against 2210417D09Rik | inactive: -0.446
GCUAUGUUUAGGCACAAUATT against C130023O10Rik | inactive: 0.567
GGAAAAGUGAAGGUGAUUCTT against Stch | inactive: 0.739
GCUGCUCCCUCUAAUAAAATT against Cbr1 | inactive: 0.901
GGAAUAUGAGUUUUCUCAGTT against Zfp68 | inactive: -1.05
GGAGUCUGUCUUAUCAUUUTT against 2900011O08Rik | inactive: 1.29
GGCAUCUGUAAGAUGUACGTT against 1700018B24Rik | inactive: 0.159
UUUAUACUUCCCUGAUUUUTT against Olfr943 | inactive: 0.856
GGGUCUAAGAUGCAAACGCTT against Flt3l | inactive: 0.967
CCUAUACUUUUGGUCUUAGTT against 2010305A19Rik | inactive: -1.41
